Measured values as given in the supplement of paper PMC8728848.
Some of the results follow.

Legend:
Assay in all cases: glycan array binding signal (z-score within array); higher = stronger binding
Settings in all cases: glycan notation: IUPAC condensed, linker removed
[1] = target: Gal(a1-3)[Gal(a1-4)]Gal(b1-4)GlcNAc
Outline: (§1)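 Glycan array data were curated from 3228 arrays in the Consortium for Functional Glycomics database and kept only where the protein sequence was available. Glycan names were converted to IUPAC-condensed notation, and columns mapping to the same glycan were averaged. The binding signal is a within-array Z-score, averaged across arrays of the same protein sequence at different concentrations or buffers and across linkers. Negative Z-scores can be read as non-binding.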

[2] = target: Gal(a1-4)Gal(b1-3)GlcNAc(b1-2)Man(a1-3)[Gal(a1-4)Gal(b1-3)GlcNAc(b1-2)Man(a1-6)]Man(b1-4)GlcNAc(b1-4)GlcNAc
Outline: as §1

[3] = target: Gal(a1-4)Gal(b1-4)Glc
Outline: as §1

[4] = target: Gal(a1-4)Gal(b1-4)GlcNAc
Outline: as §1

[5] = target: Gal(a1-4)Gal(b1-4)GlcNAc(b1-2)Man(a1-3)[Gal(a1-4)Gal(b1-4)GlcNAc(b1-2)Man(a1-6)]Man(b1-4)GlcNAc(b1-4)GlcNAc
Outline: as §1

[6] = target: Gal(a1-4)Gal(b1-4)GlcNAc(b1-3)Gal(b1-4)Glc
Outline: as §1

[7] = target: Gal(a1-4)GlcNAc
Outline: as §1

[8] = target: Gal(a1-6)Glc
Outline: as §1

[9] = target: Gal(b1-2)Gal
Outline: as §1

[10] = target: Gal(b1-3)Gal
Outline: as §1

[11] = target: Gal(b1-3)Gal(b1-4)GlcNAc
Outline: as §1

[12] = target: Gal(b1-3)GalNAc
Outline: as §1

[13] = target: Gal(b1-3)GalNAc(a1-3)[Fuc(a1-2)]Gal(b1-4)Glc
Outline: as §1

[14] = target: Gal(b1-3)GalNAc(a1-3)[Fuc(a1-2)]Gal(b1-4)GlcNAc
Outline: as §1

[15] = target: Gal(b1-3)GalNAc(b1-3)Gal
Outline: as §1

[16] = target: Gal(b1-3)GalNAc(b1-3)Gal(a1-4)Gal(b1-4)Glc
Outline: as §1

[17] = target: Gal(b1-3)GalNAc(b1-4)Gal(b1-4)Glc
Outline: as §1

[18] = target: Gal(b1-3)GalNAc(b1-4)[Neu5Ac(a2-3)]Gal(b1-4)Glc
Outline: as §1

[19] = target: Gal(b1-3)GlcNAc
Outline: as §1

[20] = target: Gal(b1-3)GlcNAc(a1-3)Gal(b1-4)GlcNAc
Outline: as §1

[21] = target: Gal(b1-3)GlcNAc(a1-6)Gal(b1-4)GlcNAc
Outline: as §1

[22] = target: Gal(b1-3)GlcNAc(b1-2)Man
Outline: as §1

[23] = target: Gal(b1-3)GlcNAc(b1-2)Man(a1-3)[Gal(b1-3)GlcNAc(b1-2)Man(a1-6)]Man(b1-4)GlcNAc(b1-4)GlcNAc
Outline: as §1

[24] = target: Gal(b1-3)GlcNAc(b1-2)Man(a1-3)[Gal(b1-3)GlcNAc(b1-2)Man(a1-6)]Man(b1-4)GlcNAc(b1-4)[Fuc(a1-6)]GlcNAc
Outline: as §1

[25] = target: Gal(b1-3)GlcNAc(b1-2)Man(a1-3)[GlcNAc(b1-4)][Gal(b1-3)GlcNAc(b1-2)Man(a1-6)]Man(b1-4)GlcNAc(b1-4)GlcNAc
Outline: as §1

[26] = target: Gal(b1-3)GlcNAc(b1-2)[Gal(b1-3)GlcNAc(b1-6)]Man(a1-6)[Gal(b1-3)GlcNAc(b1-2)Man(a1-3)]Man(b1-4)GlcNAc(b1-4)GlcNAc
Outline: as §1

[27] = target: Gal(b1-3)GlcNAc(b1-3)Gal(b1-3)GlcNAc
Outline: as §1

[28] = target: Gal(b1-3)GlcNAc(b1-3)Gal(b1-4)Glc
Outline: as §1

[29] = target: Gal(b1-3)GlcNAc(b1-3)Gal(b1-4)GlcNAc
Outline: as §1

[30] = target: Gal(b1-3)GlcNAc(b1-3)Gal(b1-4)GlcNAc(b1-2)Man(a1-3)[Gal(b1-3)GlcNAc(b1-3)Gal(b1-4)GlcNAc(b1-2)Man(a1-6)]Man(b1-4)GlcNAc(b1-4)GlcNAc
Outline: as §1

[31] = target: Gal(b1-3)GlcNAc(b1-3)Gal(b1-4)GlcNAc(b1-2)[Gal(b1-3)GlcNAc(b1-3)Gal(b1-4)GlcNAc(b1-6)]Man(a1-6)[Gal(b1-3)GlcNAc(b1-3)Gal(b1-4)GlcNAc(b1-2)Man(a1-3)]Man(b1-4)GlcNAc(b1-4)[Fuc(a1-6)]GlcNAc
Outline: as §1

[32] = target: Gal(b1-3)GlcNAc(b1-3)Gal(b1-4)GlcNAc(b1-3)Gal(b1-4)GlcNAc(b1-2)[Gal(b1-3)GlcNAc(b1-3)Gal(b1-4)GlcNAc(b1-3)Gal(b1-4)GlcNAc(b1-6)]Man(a1-6)[Gal(b1-3)GlcNAc(b1-3)Gal(b1-4)GlcNAc(b1-3)Gal(b1-4)GlcNAc(b1-2)Man(a1-3)]Man(b1-4)GlcNAc(b1-4)[Fuc(a1-6)]GlcNAc
Outline: as §1

[33] = target: Gal(b1-3)GlcNAc(b1-3)Gal(b1-4)GlcNAc(b1-6)[Gal(b1-3)GlcNAc(b1-3)]Gal(b1-4)Glc
Outline: as §1

[34] = target: Gal(b1-3)GlcNAc(b1-3)Gal(b1-4)[Fuc(a1-3)]GlcNAc
Outline: as §1

[35] = target: Gal(b1-3)GlcNAc(b1-3)Gal(b1-4)[Fuc(a1-3)]GlcNAc(b1-6)[Gal(b1-3)GlcNAc(b1-3)]Gal(b1-4)Glc
Outline: as §1

[36] = target: Gal(b1-3)GlcNAc(b1-3)GalNAc
Outline: as §1

[37] = target: Gal(b1-3)GlcNAc(b1-6)Gal(b1-4)GlcNAc
Outline: as §1

[38] = target: Gal(b1-3)GlcNAc(b1-6)GalNAc
Outline: as §1

B1: B3GalT2 (Rattus norvegicus) (protein)
chain: LMLQWRRRHCCFAKMSWNAKRSLFRTHLMGVLSLVFLFAMFLFFNHHDWLPGRPGFKENPVTYTFRGFRSTKTETNQSSLRNIWKEVVPQTLRPQTATNSNNTELSPQGVTGLENTLSANGSIYNEKGTGHPNSYHFKYIINEPEKCQEKSPFLILLIAAEPGQIEARRAIRQTWGNETLAPGIQITRIFLLGISIKLNGYLQHAIQEESIQYHDIIQQEYLDTYYNLTIKTLMGMNWVATYCPHTPYVMKTDSDMFVNTEYLIHKLLKPDLPPRHNYFTGYLMRGYAPNRNKDSKWYMPPDLYPSERYPVFCSGTGYVFSGDLAEKIFKVSLGIRRLHLEDVYVGICLAKLRVDPVPPPNEFVFNHWRVSYSSCKYSHLITSHQFQPSELIKYWNHLQQNKHNACVNAAKEKAGRYRHRKLH
**Q.** With B1 as the binder, how does the “glycan array binding signal (z-score)” value [1] read?
**A.** The value was 0.28.

**Q.** And the “glycan array binding signal (z-score)” value [2]?
**A.** The value was 0.421.

**Q.** And the “glycan array binding signal (z-score)” value [3]?
**A.** The value was -0.43.

**Q.** What about the “glycan array binding signal (z-score)” value [4] of the same binder?
**A.** Its value is 0.027.

**Q.** What about the “glycan array binding signal (z-score)” value [5] of the same binder?
**A.** Its value is -0.558.

**Q.** What about the “glycan array binding signal (z-score)” value [6] of the same binder?
**A.** The value was -0.026.

**Q.** And the “glycan array binding signal (z-score)” value [7]?
**A.** The value was 0.574.

**Q.** What about the “glycan array binding signal (z-score)” value [8] of the same binder?
**A.** The value was -0.596.

**Q.** And the “glycan array binding signal (z-score)” value [9]?
**A.** Its value is -0.622.

**Q.** And the “glycan array binding signal (z-score)” value [10]?
**A.** The value was -0.434.

**Q.** And the “glycan array binding signal (z-score)” value [11]?
**A.** The value was -0.408.

**Q.** What about the “glycan array binding signal (z-score)” value [12] of the same binder?
**A.** Its value is -0.159.

**Q.** What about the “glycan array binding signal (z-score)” value [13] of the same binder?
**A.** The value was -0.035.

**Q.** What about the “glycan array binding signal (z-score)” value [14] of the same binder?
**A.** The value was 1.09.

**Q.** What about the “glycan array binding signal (z-score)” value [15] of the same binder?
**A.** Its value is 1.28.

**Q.** And the “glycan array binding signal (z-score)” value [16]?
**A.** The value was 0.105.

**Q.** What about the “glycan array binding signal (z-score)” value [17] of the same binder?
**A.** Its value is -0.15.

**Q.** What about the “glycan array binding signal (z-score)” value [18] of the same binder?
**A.** The value was 0.735.

**Q.** And the “glycan array binding signal (z-score)” value [19]?
**A.** The value was 0.728.

**Q.** What about the “glycan array binding signal (z-score)” value [20] of the same binder?
**A.** The value was -1.03.

**Q.** And the “glycan array binding signal (z-score)” value [21]?
**A.** The value was 0.137.

**Q.** What about the “glycan array binding signal (z-score)” value [22] of the same binder?
**A.** The value was -0.913.

**Q.** What about the “glycan array binding signal (z-score)” value [23] of the same binder?
**A.** The value was -0.55.

**Q.** And the “glycan array binding signal (z-score)” value [24]?
**A.** The value was -0.68.

**Q.** And the “glycan array binding signal (z-score)” value [25]?
**A.** Its value is -0.55.

**Q.** What about the “glycan array binding signal (z-score)” value [26] of the same binder?
**A.** Its value is 0.629.

**Q.** And the “glycan array binding signal (z-score)” value [27]?
**A.** Its value is 0.178.

**Q.** And the “glycan array binding signal (z-score)” value [28]?
**A.** The value was -0.697.

**Q.** And the “glycan array binding signal (z-score)” value [29]?
**A.** The value was 0.472.

**Q.** And the “glycan array binding signal (z-score)” value [30]?
**A.** The value was -0.918.

**Q.** What about the “glycan array binding signal (z-score)” value [31] of the same binder?
**A.** The value was 1.09.

**Q.** What about the “glycan array binding signal (z-score)” value [32] of the same binder?
**A.** Its value is 2.97.

**Q.** And the “glycan array binding signal (z-score)” value [33]?
**A.** Its value is -1.02.

**Q.** What about the “glycan array binding signal (z-score)” value [34] of the same binder?
**A.** Its value is 0.109.

**Q.** What about the “glycan array binding signal (z-score)” value [35] of the same binder?
**A.** The value was -0.974.

**Q.** What about the “glycan array binding signal (z-score)” value [36] of the same binder?
**A.** The value was 0.129.

**Q.** And the “glycan array binding signal (z-score)” value [37]?
**A.** The value was -0.423.

**Q.** What about the “glycan array binding signal (z-score)” value [38] of the same binder?
**A.** Its value is -1.07.
